Reference: patent US20250354930A1, “IONIC LIQUID ENCAPSULATION OF NIR DYES FOR THE IMPROVEMENT OF BLOODSTAIN DETECTION” (University of Mississippi, priority 2024, published 2025)
At least one structure is not confirmed: it was looked up by name or label, or the drawing left a doubt.

## O=C(O)CO.c1c[nH]cn1 [imidazolium glycolate]
  effect on the dye's fluorescence in the presence of blood: no appreciable fluorescence enhancement
